Results published in paper PMC4031558.
These are yes or no findings as the source states them, for the method shown. In cells and extracts the contact can be indirect. Some entries that bind do so weakly or less than the wild type.

By UniProt entry, the sequences of proteins in these tests, tags left out.
UniProt P13569: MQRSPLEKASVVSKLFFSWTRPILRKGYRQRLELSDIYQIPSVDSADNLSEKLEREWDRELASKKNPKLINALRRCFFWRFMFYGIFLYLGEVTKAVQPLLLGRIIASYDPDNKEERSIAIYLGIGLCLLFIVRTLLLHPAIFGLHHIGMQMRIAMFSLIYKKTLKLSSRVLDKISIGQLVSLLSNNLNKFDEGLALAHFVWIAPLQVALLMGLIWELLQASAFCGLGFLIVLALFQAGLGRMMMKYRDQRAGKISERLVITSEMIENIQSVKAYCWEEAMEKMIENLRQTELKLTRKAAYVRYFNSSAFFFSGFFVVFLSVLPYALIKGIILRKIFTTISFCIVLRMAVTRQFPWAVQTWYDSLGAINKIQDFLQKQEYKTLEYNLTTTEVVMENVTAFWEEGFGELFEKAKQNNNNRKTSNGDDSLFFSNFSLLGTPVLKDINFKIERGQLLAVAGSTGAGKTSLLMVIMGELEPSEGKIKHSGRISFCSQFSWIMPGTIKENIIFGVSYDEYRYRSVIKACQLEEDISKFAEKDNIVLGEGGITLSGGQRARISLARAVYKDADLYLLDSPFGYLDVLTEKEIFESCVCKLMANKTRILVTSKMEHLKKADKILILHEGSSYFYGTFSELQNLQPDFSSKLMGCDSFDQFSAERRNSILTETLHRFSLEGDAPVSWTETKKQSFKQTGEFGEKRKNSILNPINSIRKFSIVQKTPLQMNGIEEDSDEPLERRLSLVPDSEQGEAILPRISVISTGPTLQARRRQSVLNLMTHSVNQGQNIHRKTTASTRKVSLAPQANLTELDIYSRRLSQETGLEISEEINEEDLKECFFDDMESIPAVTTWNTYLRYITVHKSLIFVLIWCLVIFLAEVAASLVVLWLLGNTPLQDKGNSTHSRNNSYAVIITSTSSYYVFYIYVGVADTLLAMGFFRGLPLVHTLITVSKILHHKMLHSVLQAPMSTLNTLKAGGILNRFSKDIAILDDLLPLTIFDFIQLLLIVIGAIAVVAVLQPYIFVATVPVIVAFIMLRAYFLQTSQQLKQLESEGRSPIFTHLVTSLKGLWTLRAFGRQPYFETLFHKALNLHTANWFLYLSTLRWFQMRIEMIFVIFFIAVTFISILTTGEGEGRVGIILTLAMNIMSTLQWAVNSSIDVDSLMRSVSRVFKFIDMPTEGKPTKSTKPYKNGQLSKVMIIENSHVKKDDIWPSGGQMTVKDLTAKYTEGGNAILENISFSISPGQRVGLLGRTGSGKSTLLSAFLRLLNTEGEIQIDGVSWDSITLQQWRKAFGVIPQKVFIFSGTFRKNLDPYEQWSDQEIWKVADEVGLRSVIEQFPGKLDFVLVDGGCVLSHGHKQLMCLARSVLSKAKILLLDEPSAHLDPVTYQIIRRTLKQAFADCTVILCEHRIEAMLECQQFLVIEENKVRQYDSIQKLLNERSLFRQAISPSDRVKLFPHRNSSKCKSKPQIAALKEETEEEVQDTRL
UniProt Q8IWU2: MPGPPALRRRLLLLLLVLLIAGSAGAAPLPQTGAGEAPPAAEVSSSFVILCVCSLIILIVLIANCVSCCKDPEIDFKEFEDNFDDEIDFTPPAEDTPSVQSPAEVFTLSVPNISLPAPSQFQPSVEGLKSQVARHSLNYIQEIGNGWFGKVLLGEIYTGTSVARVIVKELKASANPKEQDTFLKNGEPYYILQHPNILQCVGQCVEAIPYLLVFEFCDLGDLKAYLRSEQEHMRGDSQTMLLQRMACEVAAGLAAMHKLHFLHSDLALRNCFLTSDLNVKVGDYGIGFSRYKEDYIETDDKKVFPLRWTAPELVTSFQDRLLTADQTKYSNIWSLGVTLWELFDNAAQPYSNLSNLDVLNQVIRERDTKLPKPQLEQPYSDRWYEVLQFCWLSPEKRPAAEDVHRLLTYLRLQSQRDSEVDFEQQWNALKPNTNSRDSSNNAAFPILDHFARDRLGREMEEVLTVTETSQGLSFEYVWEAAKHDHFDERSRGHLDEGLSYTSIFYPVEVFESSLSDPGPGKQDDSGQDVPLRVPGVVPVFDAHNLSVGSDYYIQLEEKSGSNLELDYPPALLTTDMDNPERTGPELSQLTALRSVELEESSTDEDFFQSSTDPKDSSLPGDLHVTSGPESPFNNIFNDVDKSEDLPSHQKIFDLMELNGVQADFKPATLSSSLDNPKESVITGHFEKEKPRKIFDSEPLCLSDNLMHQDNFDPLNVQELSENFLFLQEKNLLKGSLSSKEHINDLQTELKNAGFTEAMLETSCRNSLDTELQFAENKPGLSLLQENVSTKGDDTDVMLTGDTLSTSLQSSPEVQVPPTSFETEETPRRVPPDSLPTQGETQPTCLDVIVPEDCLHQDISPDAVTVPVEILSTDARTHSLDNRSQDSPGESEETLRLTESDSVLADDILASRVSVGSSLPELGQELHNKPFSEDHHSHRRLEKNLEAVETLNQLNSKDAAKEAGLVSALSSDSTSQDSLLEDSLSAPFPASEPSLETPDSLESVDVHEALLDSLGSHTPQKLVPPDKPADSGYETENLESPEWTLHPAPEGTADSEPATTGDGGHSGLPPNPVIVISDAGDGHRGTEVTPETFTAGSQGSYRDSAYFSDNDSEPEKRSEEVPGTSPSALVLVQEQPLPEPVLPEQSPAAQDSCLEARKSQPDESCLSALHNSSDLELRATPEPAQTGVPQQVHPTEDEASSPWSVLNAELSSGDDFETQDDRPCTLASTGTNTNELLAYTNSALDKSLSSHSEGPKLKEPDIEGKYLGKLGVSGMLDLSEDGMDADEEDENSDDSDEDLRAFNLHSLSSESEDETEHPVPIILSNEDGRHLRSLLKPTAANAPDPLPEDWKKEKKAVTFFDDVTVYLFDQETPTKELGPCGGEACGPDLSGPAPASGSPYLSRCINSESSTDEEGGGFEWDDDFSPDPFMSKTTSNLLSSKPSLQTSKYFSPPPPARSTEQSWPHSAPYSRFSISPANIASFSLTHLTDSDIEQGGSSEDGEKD

Experiments:
[1] = biological target: cystic fibrosis transmembrane conductance regulator (CFTR) (human (endogenous in Calu-3)) (UniProt P13569); assay: co-IP; endogenous proteins from lysates of polarized Calu-3 cells; IP buffer 150 mM NaCl, 50 mM Tris pH 7.4, 1% IGEPAL, 5 mM MgCl2, 5 mM EDTA, 1 mM EGTA; CFTR precipitated with mouse M3A7, LMTK2 with rabbit anti-LMTK2 kinase domain antibody, on protein G- or protein A-Sepharose; non-immune mouse or rabbit IgG as controls; Western blot
[2] = biological target: Lemur tyrosine kinase 2 (LMTK2) (human (endogenous in Calu-3)) (UniProt Q8IWU2); assay: as above

binding [1]	binding [2]	Substance
binds	–	Lemur tyrosine kinase 2 (LMTK2) (from UniProt Q8IWU2 1-1503) (enzyme)
–	binds	cystic fibrosis transmembrane conductance regulator (CFTR) (from UniProt P13569 1-1480)
